{"source": "PubChem BioAssay AID720505 (Drosophila RNAi Screening Center, 2013)", "purpose": "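Genes needed for store-operated calcium entry in fly cells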 (primary screen)", "system": "Drosophila S2R+ cells", "reagent": "long dsRNA against Drosophila genes", "challenge": "thapsigargin (2 µM) in calcium-free buffer to empty internal stores, then 2 mM calcium added back", "measurement": "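Stores emptied by 2 µM thapsigargin without calcium, then 2 mM calcium re-added; fluo-4 fluorescence followed by FLIPR in 384-well plates, per-well averaged endpoint, raw; two screen passes, some wells retested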", "direction": "calcium signal: higher = more calcium entry after store depletion", "active means": "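About 1500 genes called as lowering calcium entry, by varying amounts, judged against per-plate control wells with STIM1 as positive and Rho1 as negative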", "meaning of the calls": "active = called as lowering calcium entry; inactive = not called", "note": "The deposit covers about 20,000 reagents; below is a random part of those with a known target gene and a result. Of all reagents, about 2,100 (10%) are marked active. 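Raw plate signals without normalisation; calls rest on control-based scores that were not deposited; replicate 2 separates called from uncalled poorly.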 Entries without a mark were called inactive. A plus sign joins genes that one reagent is predicted to hit. Reagent sequences are not shown. The record does not give: the amount of reagent, the time to read-out."}
{"Target gene":"CG13912","DRSC id":"DRSC08381","calcium signal, replicate 1":75.2,"calcium signal, replicate 2":105}
{"Target gene":"U2af38","DRSC id":"DRSC00796","calcium signal, replicate 1":"54.7 (active)","calcium signal, replicate 2":191}
{"Target gene":"Jon66Ci","DRSC id":"DRSC10772","calcium signal, replicate 1":87.3,"calcium signal, replicate 2":68}
{"Target gene":"NijC","DRSC id":"DRSC14851","calcium signal, replicate 1":174,"calcium signal, replicate 2":90}
{"Target gene":"Secp43","DRSC id":"DRSC00454","calcium signal, replicate 1":109,"calcium signal, replicate 2":129}
{"Target gene":"CG14708","DRSC id":"DRSC14930","calcium signal, replicate 1":141,"calcium signal, replicate 2":100}
{"Target gene":"bcd + CR14578","DRSC id":"DRSC20984","calcium signal, replicate 1":116,"calcium signal, replicate 2":119}
{"Target gene":"Txl","DRSC id":"DRSC11310","calcium signal, replicate 1":82.5,"calcium signal, replicate 2":63.5}
{"Target gene":"sick","DRSC id":"DRSC02090","calcium signal, replicate 1":116,"calcium signal, replicate 2":136}
{"Target gene":"sick","DRSC id":"DRSC02300","calcium signal, replicate 1":101,"calcium signal, replicate 2":94}
{"Target gene":"sick","DRSC id":"DRSC02301","calcium signal, replicate 1":122,"calcium signal, replicate 2":91.7}
{"Target gene":"sick","DRSC id":"DRSC02302","calcium signal, replicate 1":131,"calcium signal, replicate 2":106}
{"Target gene":"sick","DRSC id":"DRSC02303","calcium signal, replicate 1":"59.5 (active)","calcium signal, replicate 2":95.3}
{"Target gene":"sick","DRSC id":"DRSC02306","calcium signal, replicate 1":110,"calcium signal, replicate 2":88.3}
{"Target gene":"Dlg5","DRSC id":"DRSC02964","calcium signal, replicate 1":74.3,"calcium signal, replicate 2":119}
{"Target gene":"CG5707","DRSC id":"DRSC08573","calcium signal, replicate 1":113,"calcium signal, replicate 2":136}
{"Target gene":"BobA","DRSC id":"DRSC09889","calcium signal, replicate 1":100,"calcium signal, replicate 2":116}
{"Target gene":"RnpS1","DRSC id":"DRSC15154","calcium signal, replicate 1":144,"calcium signal, replicate 2":171}
{"Target gene":"CG14232","DRSC id":"DRSC19588","calcium signal, replicate 1":140,"calcium signal, replicate 2":126}

Single entries from the entries so far.
RnpS1 [DRSC15154], calcium signal, replicate 2: 171
Entry for Jon66Ci [DRSC10772] in “calcium signal, replicate 2”: 68
